These are yes or no findings as the source states them, for the method shown. Binding seen in cells or lysates may run through a third protein. Some results given as binding are weak or reduced against the parent protein; the word gives no strength. Tags and fused reporters may be left off the sequences shown.
Biological target: Nup159 (split-Venus fusion) (S. cerevisiae) (UniProt P40477)
Experiment: split reporter

Protein sequences, listed by entry. Tags and fused reporters are not part of them.
UniProt P40477: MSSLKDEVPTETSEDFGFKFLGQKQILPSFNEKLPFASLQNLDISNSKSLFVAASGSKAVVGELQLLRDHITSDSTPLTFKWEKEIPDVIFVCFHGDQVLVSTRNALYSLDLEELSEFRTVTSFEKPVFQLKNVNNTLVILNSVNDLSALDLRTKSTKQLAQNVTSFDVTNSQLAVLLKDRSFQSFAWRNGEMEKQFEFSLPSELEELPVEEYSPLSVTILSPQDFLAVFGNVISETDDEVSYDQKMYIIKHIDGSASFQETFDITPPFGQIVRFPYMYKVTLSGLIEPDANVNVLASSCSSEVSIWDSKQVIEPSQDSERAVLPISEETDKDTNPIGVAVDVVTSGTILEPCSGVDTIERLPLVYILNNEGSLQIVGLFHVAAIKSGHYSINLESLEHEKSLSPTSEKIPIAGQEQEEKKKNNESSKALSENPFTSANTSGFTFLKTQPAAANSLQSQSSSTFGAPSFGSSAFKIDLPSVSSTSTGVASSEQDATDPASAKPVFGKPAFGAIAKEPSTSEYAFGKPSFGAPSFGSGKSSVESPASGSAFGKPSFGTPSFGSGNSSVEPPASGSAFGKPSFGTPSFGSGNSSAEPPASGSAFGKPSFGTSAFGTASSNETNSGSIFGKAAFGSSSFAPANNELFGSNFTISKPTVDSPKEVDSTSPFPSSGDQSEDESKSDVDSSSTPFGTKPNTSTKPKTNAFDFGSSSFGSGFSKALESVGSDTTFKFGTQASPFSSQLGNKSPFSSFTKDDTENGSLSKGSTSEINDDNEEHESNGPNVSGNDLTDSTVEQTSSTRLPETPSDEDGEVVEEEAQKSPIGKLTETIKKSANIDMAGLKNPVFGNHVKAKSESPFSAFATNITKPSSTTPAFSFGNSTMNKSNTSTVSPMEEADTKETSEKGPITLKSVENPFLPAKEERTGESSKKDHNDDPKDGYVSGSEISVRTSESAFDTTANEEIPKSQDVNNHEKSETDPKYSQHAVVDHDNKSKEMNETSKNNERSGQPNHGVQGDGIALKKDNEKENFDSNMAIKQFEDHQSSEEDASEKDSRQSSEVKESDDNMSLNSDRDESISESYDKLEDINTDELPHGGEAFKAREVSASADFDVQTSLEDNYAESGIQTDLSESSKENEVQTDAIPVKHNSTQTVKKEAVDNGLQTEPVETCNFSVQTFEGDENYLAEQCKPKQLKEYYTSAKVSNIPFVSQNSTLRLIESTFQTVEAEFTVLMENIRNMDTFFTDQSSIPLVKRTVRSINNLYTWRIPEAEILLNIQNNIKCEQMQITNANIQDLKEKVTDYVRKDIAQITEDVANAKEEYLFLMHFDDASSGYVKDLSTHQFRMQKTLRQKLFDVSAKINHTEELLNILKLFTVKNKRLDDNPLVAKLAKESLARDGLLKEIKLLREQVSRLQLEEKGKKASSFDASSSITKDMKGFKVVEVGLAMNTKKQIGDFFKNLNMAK

B1: Atg8 (split-Venus fusion) (protein, UniProt P38182 1-117)
chain: MKSTFKSEYPFEKRKAESERIADRFKNRIPVICEKAEKSDIPEIDKRKYLVPADLTVGQFVYVIRKRIMLPPEKAIFIFVNDTLPPTAALMSAIYQEHKDKDGFLYVTYSGENTFGR
B1 was tested, and the binding was “binds”.

— paper doi:10.1101/2020.02.04.933820
